Results are given in words; binding and its absence hold for the method and conditions named. Binding seen in cells or lysates may run through a third protein. Some entries that bind do so weakly or less than the wild type. Where a sequence is shown, tags or fusion partners need not be part of it.
Target: T1, MuSK (muscle specific kinase), full length (rat) (UniProt Q62838)
T1 sequence: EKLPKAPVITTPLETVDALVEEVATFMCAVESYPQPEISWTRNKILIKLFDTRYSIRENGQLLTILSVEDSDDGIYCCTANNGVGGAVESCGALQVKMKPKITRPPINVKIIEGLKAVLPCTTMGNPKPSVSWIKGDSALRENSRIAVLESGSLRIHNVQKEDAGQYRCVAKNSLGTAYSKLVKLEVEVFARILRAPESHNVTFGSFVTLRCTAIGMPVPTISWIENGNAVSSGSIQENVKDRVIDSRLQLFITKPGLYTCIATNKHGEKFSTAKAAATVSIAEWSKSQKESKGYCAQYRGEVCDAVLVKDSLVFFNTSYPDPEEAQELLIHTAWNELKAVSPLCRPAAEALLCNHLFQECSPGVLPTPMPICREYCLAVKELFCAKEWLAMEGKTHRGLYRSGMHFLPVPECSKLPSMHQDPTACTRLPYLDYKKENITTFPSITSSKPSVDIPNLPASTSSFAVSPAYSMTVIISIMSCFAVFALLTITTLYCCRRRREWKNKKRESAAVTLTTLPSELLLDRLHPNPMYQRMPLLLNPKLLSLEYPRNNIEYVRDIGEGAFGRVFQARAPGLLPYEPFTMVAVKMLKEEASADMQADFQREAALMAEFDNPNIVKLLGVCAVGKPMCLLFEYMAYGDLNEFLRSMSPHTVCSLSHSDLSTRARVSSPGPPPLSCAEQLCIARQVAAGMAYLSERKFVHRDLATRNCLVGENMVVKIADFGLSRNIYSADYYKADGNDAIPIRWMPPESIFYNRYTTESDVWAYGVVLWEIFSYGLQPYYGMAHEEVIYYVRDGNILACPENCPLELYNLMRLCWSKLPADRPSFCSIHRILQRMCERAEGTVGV
Test: co-IP; COS 7 cells cotransfected with Wnt4-HA and MuSK or MuSKΔCRD; total cell lysates immunoprecipitated with anti-MuSK or anti-HA antibodies and protein A or G sepharose (3 hours at 4°C), washed in lysis buffer (Tris HCl 50 mM, NaCl 150 mM, EDTA 2 mM, SDS 0.1%, Triton X100 1%); western blot with HA or MuSK antibodies

- binding: binds
B1: HA-tagged Wnt4 (ligand, UniProt P22724 23-351, looked up)
chain: SNWLYLAKLSSVGSISEEETCEKLKGLIQRQVQMCKRNLEVMDSVRRGAQLAIEECQYQFRNRRWNCSTLDSLPVFGKVVTQGTREAAFVYAISSAGVAFAVTRACSSGELEKCGCDRTVHGVSPQGFQWSGCSDNIAYGVAFSQSFVDVRERSKGASSSRALMNLHNNEAGRKAILTHMRVECKCHGVSGSCEVKTCWRAVPPFRQVGHALKEKFDGATEVEPRRVGSSRALVPRNAQFKPHTDEDLVYLEPSPDFCEQDIRSGVLGTRGRTCNKTSKAIDGCELLCCGRGFHTAQVELAERCGCRFHWCCFVKCRQCQRLVEMHTCR

— article PMC3257248, “Wnt4 Participates in the Formation of Vertebrate Neuromuscular Junction” (PLoS ONE, 2012)
